Results published in paper PMC4627417.
Results are given in words; binding and its absence hold for the method and conditions named. In cells and extracts the contact can be indirect. These calls come from enrichment with a bait or labelling near it, and not all partners need be listed. Tags and fused reporters may be left off the sequences shown. Each block holds one binder with its values, some of them ahead of it.

Target: 3XMyc-RPRD1B wild type (full length) (human) (UniProt Q9NQG5)
Test: affinity purification with mass spectrometry; SILAC: tetracycline-induced 3XMyc-RPRD1B WT (heavy) and MT (light) in 293 Flp-In cells, anti-Myc immunoprecipitates from total lysate combined and analysed by MS

binding: binds
B1: CSTF1 (protein, UniProt Q05048 1-431)
chain: MYRTKVGLKDRQQLYKLIISQLLYDGYISIANGLINEIKPQSVCAPSEQLLHLIKLGMENDDTAVQYAIGRSDTVAPGTGIDLEFDADVQTMSPEASEYETCYVTSHKGPCRVATYSRDGQLIATGSADASIKILDTERMLAKSAMPIEVMMNETAQQNMENHPVIRTLYDHVDEVTCLAFHPTEQILASGSRDYTLKLFDYSKPSAKRAFKYIQEAEMLRSISFHPSGDFILVGTQHPTLRLYDINTFQCFVSCNPQDQHTDAICSVNYNSSANMYVTGSKDGCIKLWDGVSNRCITTFEKAHDGAEVCSAIFSKNSKYILSSGKDSVAKLWEISTGRTLVRYTGAGLSGRQVHRTQAVFNHTEDYVLLPDERTISLCCWDSRTAERRNLLSLGHNNIVRCIVHSPTNPGFMTCSDDFRARFWYRRSTTD

binding: binds
B2: SFRS15 (protein, UniProt O95104 1-1147)
chain: MDAVNAFNQELFSLMDMKPPISRAKMILITKAAIKAIKLYKHVVQIVEKFIKKCKPEYKVPGLYVIDSIVRQSRHQFGTDKDVFGPRFSKNITATFQYLYLCPSEDKSKIVRVLNLWQKNGVFKIEIIQPLLDMAAGTSNAAPVAENVTNNEGSPPPPVKVSSEPPTQATPNSVPAVPQLPSSDAFAAVAQLFQTTQGQQLQQILQTFQQPPKPQSPALDNAVMAQVQAITAQLKTTPTQPSEQKAAFPPPEQKTAFDKKLLDRFDYDDEPEAVEESKKEDTTAVTTTAPAAAVPPAPTATVPAAAAPAAASPPPPQAPFGFPGDGMQQPAYTQHQNMDQFQPRMMGIQQDPMHHQVPLPPNGQMPGFGLLPTPPFPPMAQPVIPPTPPVQQPFQASFQAQNEPLTQKPHQQEMEVEQPCIQEVKRHMSDNRKSRSRSASRSPKRRRSRSGSRSRRSRHRRSRSRSRDRRRHSPRSRSQERRDREKERERRQKGLPQVKPETASVCSTTLWVGQLDKRTTQQDVASLLEEFGPIESINMIPPRGCAYIVMVHRQDAYRALQKLSRGNYKVNQKSIKIAWALNKGIKADYKQYWDVELGVTYIPWDKVKPEELESFCEGGMLDSDTLNPDWKGIPKKPENEVAQNGGAETSHTEPVSPIPKPLPVPVPPIPVPAPITVPPPQVPPHQPGPPVVGALQPPAFTPPLGIPPPGFGPGVPPPPPPPPFLRPGFNPMHLPPGFLPPGPPPPITPPVSIPPPHTPPISIPNSTIAGINEDTTKDLSIGNPIPTVVSGARGNAESGDSVKMYGSAVPPAAPTNLPTPPVTQPVSLLGTQGVAPGPVIGLQAPSTGLLGARPGLIPLQRPPGMPPPHLQRFPLMPPRPMPPHMMHRGPPPGPGGFAMPPPHGMKGPFPPHGPFVRPGGMPGLGGPGPGPGGPEDRDGRQQPPQQPQQQPQPQAPQQPQQQQQQQPPPSQQPPPTQQQPQQFRNDNRQQFNSGRDQERFGRRSFGNRVENDRERYGNRNDDRDNSNRDRREWGRRSPDRDRHRDLEERNRRSSGHRDRERDSRDRESRREKEEARGKEKPEVTDRAGGNKTVEPPISQVGNVDTASELEKGVSEAAVLKPSEELPAEATSSVEPEKDSGSAAEAPR
